21 targets from the supplement of paper PMC10849652 can be followed below.

By UniProt entry, the sequences of proteins in these tests, tags left out. Where a name states a change or a piece, a line headed by the entry shows the natural chain unless it says otherwise.
UniProt Q9UKU0: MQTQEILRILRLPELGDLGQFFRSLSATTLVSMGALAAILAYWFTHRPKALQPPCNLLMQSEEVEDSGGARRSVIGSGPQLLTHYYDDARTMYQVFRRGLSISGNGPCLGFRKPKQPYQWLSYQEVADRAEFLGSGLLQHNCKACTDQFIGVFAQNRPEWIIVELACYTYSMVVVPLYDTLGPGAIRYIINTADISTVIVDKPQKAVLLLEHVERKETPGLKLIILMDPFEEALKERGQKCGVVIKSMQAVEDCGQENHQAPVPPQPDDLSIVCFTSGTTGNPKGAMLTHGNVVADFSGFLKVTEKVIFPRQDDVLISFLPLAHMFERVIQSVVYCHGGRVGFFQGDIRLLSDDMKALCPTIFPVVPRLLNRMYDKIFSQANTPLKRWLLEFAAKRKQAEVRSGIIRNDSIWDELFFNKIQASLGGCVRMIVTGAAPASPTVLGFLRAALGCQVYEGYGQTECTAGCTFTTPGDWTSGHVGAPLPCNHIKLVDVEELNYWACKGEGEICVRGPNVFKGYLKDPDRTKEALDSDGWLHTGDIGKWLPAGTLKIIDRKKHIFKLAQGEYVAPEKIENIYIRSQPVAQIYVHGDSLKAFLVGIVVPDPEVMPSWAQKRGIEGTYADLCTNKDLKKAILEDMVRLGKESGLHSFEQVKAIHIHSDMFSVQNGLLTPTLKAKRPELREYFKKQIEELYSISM
UniProt P21439, whole entry, looked up: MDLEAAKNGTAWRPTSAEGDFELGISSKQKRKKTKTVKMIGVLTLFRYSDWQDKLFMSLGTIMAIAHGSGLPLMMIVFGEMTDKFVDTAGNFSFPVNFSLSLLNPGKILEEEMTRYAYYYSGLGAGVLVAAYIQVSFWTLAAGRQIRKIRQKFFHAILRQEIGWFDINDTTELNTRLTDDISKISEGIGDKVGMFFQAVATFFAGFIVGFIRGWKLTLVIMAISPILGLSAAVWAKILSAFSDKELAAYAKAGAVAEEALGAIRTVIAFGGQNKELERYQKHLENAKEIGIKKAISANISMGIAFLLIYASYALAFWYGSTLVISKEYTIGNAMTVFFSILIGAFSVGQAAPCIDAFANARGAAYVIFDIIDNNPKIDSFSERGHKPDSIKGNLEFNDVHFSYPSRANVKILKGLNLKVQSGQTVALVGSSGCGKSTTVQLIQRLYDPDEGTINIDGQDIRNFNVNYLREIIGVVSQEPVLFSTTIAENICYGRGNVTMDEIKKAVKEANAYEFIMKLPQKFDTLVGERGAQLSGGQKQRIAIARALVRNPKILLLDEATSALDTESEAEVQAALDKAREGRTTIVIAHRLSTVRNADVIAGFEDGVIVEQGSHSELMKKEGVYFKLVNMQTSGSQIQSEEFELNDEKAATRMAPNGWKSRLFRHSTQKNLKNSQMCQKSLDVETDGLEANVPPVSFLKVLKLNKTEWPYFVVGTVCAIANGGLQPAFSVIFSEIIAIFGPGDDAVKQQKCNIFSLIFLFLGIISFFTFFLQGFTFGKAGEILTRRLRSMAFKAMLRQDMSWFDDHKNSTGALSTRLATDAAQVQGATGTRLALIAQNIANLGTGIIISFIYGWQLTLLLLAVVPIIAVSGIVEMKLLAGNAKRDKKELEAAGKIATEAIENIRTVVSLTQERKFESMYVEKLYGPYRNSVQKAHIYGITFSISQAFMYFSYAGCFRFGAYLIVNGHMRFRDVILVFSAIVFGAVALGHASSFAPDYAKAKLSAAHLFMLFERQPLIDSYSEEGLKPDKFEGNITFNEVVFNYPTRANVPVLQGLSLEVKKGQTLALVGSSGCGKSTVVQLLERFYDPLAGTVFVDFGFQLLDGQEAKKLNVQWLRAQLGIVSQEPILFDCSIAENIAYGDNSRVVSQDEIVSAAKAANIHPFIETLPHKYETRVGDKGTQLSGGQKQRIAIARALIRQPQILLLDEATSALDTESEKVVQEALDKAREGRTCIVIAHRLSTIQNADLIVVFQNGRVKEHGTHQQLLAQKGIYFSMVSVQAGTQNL
UniProt Q9BTE6: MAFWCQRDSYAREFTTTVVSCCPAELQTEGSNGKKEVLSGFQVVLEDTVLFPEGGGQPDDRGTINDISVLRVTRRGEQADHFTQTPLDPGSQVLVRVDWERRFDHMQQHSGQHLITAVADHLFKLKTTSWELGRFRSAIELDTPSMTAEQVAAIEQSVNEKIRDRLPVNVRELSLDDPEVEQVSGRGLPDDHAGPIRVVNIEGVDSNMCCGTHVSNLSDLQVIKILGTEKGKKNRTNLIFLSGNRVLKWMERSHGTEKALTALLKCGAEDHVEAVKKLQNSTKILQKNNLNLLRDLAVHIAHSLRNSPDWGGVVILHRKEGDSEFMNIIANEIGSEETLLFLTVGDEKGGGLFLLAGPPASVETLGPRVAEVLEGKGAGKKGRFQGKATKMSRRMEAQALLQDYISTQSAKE
UniProt Q96QU6: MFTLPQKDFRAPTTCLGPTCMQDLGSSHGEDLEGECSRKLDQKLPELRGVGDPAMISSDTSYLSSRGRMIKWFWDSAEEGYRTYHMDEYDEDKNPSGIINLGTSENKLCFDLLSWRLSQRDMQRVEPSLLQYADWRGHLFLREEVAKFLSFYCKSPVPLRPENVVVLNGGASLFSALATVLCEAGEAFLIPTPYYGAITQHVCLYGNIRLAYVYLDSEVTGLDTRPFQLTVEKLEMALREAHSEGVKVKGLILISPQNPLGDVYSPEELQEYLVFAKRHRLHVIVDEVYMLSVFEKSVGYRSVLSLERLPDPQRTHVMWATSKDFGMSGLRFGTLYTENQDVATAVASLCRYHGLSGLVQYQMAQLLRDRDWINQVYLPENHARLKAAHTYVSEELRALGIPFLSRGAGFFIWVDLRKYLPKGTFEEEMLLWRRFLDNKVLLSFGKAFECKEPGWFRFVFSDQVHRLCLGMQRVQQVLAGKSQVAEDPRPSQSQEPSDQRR
UniProt Q5VST6: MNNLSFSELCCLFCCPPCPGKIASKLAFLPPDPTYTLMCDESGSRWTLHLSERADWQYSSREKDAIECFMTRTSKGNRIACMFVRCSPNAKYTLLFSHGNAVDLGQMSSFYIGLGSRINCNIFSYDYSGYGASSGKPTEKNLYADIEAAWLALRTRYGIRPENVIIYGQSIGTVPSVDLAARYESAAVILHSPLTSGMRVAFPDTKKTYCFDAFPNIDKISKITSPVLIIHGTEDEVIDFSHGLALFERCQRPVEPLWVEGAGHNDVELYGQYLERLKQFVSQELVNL
UniProt Q2M3G0: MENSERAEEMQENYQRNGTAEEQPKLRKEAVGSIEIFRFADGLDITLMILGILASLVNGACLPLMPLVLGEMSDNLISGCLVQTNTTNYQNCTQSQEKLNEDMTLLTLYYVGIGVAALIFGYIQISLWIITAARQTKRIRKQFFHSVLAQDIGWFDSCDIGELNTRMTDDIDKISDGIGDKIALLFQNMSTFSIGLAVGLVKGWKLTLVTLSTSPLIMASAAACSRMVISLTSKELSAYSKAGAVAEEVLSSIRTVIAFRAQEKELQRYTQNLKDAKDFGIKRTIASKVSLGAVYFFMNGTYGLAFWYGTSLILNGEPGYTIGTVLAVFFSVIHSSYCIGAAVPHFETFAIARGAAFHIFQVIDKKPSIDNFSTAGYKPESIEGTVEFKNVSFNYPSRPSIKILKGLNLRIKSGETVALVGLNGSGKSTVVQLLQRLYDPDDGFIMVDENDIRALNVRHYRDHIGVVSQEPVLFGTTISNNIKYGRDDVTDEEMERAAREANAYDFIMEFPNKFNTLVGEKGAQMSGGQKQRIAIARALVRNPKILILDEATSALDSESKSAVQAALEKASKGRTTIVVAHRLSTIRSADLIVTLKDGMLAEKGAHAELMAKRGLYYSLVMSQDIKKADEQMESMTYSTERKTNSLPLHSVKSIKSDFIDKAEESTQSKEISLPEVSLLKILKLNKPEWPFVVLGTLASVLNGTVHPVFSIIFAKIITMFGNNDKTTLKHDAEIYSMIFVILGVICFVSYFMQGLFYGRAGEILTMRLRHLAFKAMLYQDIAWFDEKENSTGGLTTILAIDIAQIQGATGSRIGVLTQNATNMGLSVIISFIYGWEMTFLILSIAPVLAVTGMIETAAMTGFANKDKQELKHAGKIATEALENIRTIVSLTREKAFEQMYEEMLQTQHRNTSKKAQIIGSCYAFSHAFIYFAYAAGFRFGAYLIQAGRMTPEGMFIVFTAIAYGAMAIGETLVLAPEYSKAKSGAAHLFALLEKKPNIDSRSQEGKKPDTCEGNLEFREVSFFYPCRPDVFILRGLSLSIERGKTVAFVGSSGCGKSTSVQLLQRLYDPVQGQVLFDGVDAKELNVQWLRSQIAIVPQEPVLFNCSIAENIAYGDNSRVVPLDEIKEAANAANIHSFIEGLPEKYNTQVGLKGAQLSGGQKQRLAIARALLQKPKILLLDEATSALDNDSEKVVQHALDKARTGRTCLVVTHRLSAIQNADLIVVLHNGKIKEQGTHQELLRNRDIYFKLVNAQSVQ
UniProt Q96M93: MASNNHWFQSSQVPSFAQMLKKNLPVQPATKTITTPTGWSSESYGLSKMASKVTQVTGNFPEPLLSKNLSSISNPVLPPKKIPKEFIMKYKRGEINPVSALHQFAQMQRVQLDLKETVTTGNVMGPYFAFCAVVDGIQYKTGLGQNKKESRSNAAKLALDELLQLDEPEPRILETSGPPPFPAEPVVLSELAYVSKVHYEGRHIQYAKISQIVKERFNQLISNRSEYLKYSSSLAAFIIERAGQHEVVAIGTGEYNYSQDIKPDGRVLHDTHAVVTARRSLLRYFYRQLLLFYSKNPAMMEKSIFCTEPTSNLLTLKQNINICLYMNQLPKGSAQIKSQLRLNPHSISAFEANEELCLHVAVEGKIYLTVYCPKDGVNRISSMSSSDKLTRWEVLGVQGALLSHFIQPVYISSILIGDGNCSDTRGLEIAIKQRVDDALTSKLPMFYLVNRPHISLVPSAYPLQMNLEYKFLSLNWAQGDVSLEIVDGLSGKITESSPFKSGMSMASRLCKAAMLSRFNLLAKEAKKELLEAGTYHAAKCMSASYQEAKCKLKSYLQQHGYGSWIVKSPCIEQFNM
UniProt P24666: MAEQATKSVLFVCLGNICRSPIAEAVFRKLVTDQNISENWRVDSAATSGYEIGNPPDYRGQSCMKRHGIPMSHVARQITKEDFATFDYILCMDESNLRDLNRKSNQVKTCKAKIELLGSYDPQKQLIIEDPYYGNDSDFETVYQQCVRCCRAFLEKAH
UniProt Q8TDG2: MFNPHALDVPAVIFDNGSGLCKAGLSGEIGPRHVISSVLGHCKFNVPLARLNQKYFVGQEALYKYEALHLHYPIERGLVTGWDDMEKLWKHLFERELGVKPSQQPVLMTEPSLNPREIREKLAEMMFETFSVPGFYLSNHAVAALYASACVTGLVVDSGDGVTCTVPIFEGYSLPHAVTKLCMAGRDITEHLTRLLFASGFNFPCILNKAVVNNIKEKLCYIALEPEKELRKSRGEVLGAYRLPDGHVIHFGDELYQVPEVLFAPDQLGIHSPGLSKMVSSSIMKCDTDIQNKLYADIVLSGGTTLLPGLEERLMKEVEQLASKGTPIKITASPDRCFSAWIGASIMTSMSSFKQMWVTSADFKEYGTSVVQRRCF
UniProt Q8NFV4: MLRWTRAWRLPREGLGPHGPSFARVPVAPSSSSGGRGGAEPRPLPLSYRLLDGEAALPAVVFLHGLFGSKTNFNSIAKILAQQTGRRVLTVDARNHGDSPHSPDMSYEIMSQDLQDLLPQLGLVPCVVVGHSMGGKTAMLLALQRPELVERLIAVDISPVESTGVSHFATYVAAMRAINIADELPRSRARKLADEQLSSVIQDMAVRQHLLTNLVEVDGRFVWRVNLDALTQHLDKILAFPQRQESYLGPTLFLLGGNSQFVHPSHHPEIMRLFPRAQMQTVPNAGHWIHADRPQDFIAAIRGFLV
UniProt O15254: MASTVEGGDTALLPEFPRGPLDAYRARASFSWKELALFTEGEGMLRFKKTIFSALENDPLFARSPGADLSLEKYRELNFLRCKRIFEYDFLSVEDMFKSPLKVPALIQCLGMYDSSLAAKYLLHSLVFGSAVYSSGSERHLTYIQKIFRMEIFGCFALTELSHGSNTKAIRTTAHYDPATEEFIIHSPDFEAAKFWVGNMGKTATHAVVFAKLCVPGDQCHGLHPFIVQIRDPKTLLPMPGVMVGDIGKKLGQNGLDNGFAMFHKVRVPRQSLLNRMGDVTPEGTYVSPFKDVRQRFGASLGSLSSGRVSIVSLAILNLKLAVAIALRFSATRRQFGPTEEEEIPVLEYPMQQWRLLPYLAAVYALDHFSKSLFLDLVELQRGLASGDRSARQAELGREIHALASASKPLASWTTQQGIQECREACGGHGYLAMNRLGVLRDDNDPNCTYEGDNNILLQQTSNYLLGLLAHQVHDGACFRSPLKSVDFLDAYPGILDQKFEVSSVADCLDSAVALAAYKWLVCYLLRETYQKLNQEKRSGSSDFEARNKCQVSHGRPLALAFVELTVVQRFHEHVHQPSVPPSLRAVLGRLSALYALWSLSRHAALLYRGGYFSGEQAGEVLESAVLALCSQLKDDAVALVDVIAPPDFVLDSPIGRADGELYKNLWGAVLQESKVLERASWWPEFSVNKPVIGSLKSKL

The list shows a part of the results.

Compound in one assay: CCN(CC)Cc1ccc2cc(COC(=O)Nc3ccc(C(=O)NO)cc3)ccc2c1 [givinostat]
As to the kind of experiment: log2 fold change, soluble protein after heating vs DMSO (PISA); higher = thermal stabilisation; K562 cells, 10 uM, 30 min; active = over 0.2 and 3.5 SD of the protein, either way, in both replicates (recomputed). The procedure, abridged:
(§1)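 Values are thermal stability changes relative to control samples and are taken from duplicates. They are stated as log2 fold changes. Before quantification by TMTpro 16plex LC-MS/MS with equalised channel sums, K562 cells at 2×10^6 cells/mL were treated with 10 μM compound for 30 min, heated in aliquots for 3 min across 48°C-58°C, pooled, extracted in PBS with 0.5% NP-40 at 4°C, and centrifuged at 21,000xg for 90 min to give the soluble supernatant.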
As for ABCA8 isoform 3 (UniProt O94911), the log2 fold change is inactive: -0.068.
Same read-out and setting: to ACSL6 isoform 1 (UniProt Q9UKU0) belongs inactive: 0.04; to ABCB4 (UniProt P21439), inactive: 0.106.
On to AARSD1 (UniProt Q9BTE6), for which the log2 fold change was inactive: -0.285.

Compound in another assay: CCN(CCCOc1ccc2c(Nc3cc(CC(=O)Nc4cccc(F)c4)[nH]n3)ncnc2c1)CCOP(=O)(O)O [barasertib]
The description is as above. The essentials:
as §1
As to ACAT1, A0A5F9ZHJ0, the log2 fold change is inactive: 0.102.
Same read-out and setting: to ACCS (UniProt Q96QU6) belongs inactive: 0.356; to ABHD17B (UniProt Q5VST6), inactive: 0.043.
For ABCB5 (UniProt Q2M3G0), the log2 fold change is inactive: -0.115.
The same measure, in the same setting: to ACAA2 (UniProt K7ER88) belongs inactive: 0.08; to ADAD1 (UniProt Q96M93), inactive: 0.044.
Consider ACP1 (UniProt P24666), for which the log2 fold change was inactive: 0.12.
On the same count and under the same terms, to ABCE1 (UniProt H0Y990) belongs inactive: -0.034.
Still for that read-out and setting: to ACTB, A0A2R8YEA7 belongs inactive: -0.047; to ABCF1 (UniProt Q5STZ8), inactive: -0.087; to ACTN1 (UniProt H9KV75), inactive: 0.028.
Same read-out and setting: to ABCA7 (UniProt Q8IZY2) belongs inactive: -0.187; to ACTRT1 (UniProt Q8TDG2), inactive: 0.01.
In the case of ABHD4 (UniProt Q8TB40), the log2 fold change was inactive: -0.465.
Still for that read-out and setting: to ABHD11 (UniProt Q8NFV4) belongs inactive: 0.057; to ACOX3 (UniProt O15254), inactive: -0.035.
Still for that read-out and setting: to ABCA8 isoform 3 (UniProt O94911) belongs inactive: -0.081; to ABCA2 isoform 3 (UniProt Q9BZC7), inactive: 0.062; to ACSL6 isoform 1 (UniProt Q9UKU0), inactive: 0.133.
Still for that read-out and setting: to AARSD1 (UniProt Q9BTE6) belongs inactive: 0.119.
